# Laboratory results as given in publication PMC12211564.
# These are yes or no findings as the source states them, for the method shown. In cells and extracts the contact can be indirect. Some results given as binding are weak or reduced against the parent protein; the word gives no strength. Where a sequence is shown, tags or fusion partners need not be part of it.
# T1: GST-RFFL (full-length RFFL with a GST tag) (human) (UniProt Q8WZ73)
# T1 sequence: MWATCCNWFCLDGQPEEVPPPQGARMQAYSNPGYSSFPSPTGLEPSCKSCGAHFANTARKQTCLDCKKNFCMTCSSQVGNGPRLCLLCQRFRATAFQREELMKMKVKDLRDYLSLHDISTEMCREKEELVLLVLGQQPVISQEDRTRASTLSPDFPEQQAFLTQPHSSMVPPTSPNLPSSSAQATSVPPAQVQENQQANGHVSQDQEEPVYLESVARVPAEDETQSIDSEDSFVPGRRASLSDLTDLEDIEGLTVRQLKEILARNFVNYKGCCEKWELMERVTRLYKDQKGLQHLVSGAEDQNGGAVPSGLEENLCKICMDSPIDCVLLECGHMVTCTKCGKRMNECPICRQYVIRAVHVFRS
# T2: GST-RFFL C5, 6A (human) (UniProt Q8WZ73)
# T2 sequence: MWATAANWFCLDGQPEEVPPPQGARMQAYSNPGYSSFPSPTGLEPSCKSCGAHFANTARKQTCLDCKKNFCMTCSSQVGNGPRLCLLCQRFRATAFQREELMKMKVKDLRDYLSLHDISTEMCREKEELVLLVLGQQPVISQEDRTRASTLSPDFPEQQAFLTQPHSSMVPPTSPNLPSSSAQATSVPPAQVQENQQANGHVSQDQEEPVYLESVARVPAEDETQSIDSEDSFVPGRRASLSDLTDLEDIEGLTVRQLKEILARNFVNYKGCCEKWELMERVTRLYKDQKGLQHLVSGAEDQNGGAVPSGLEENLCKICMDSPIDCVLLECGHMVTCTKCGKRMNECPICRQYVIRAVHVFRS
# T3: GST-RFFL H333A (human) (UniProt Q8WZ73)
# T3 sequence: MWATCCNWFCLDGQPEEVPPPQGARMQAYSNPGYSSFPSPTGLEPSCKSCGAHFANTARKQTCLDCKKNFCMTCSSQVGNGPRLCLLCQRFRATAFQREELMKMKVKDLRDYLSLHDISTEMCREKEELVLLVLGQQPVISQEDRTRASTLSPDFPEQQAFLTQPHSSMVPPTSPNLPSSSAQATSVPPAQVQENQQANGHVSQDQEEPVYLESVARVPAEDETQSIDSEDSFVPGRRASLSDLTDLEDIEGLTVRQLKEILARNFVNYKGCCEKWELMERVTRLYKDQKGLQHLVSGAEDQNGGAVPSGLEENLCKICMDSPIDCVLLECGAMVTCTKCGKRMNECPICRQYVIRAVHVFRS
# Legend:
# Assay in all cases: pull-down; His-tagged MFN2 constructs and GST-tagged RFFL (or GST) co-expressed in ArcticExpress E. coli; extract incubated with glutathione Sepharose beads 4 h at 4 C; washed three times with buffer B (50 mM NaH2PO4 pH 8.0, 500 mM NaCl, 5 mM MgCl2, 5% glycerol); immunoblot
# [1] = target: T1, GST-RFFL (full-length RFFL with a GST tag) (human)
# GST-RFFL C5, 6A (human) = target: T2, GST-RFFL C5, 6A (human)
# GST-RFFL H333A (human) = target: T3, GST-RFFL H333A (human)
binding [1],"binding (GST-RFFL C5, 6A (human))",binding (GST-RFFL H333A (human)),Binder
binds,,,"His-MFN2 (full-length) (protein, UniProt O95140-1 1-757) MSLLFSRCNSIVTVKKNKRHMAEVNASPLKHFVTAKKKINGIFEQLGAYIQESATFLEDTYRNAELDPVTTEEQVLDVKGYLSKVRGISEVLARRHMKVAFFGRTSNGKSTVINAMLWDKVLPSGIGHTTNCFLRVEGTDGHEAFLLTEGSEEKRSAKTVNQLAHALHQDKQLHAGSLVSVMWPNSKCPLLKDDLVLMDSPGIDVTTELDSWIDKFCLDADVFVLVANSESTLMQTEKHFFHKVSERLSRPNIFILNNRWDASASEPEYMEEVRRQHMERCTSFLVDELGVVDRSQAGDRIFFVSAKEVLNARIQKAQGMPEGGGALAEGFQVRMFEFQNFERRFEECISQSAVKTKFEQHTVRAKQIAEAVRLIMDSLHMAAREQQVYCEEMREERQDRLKFIDKQLELLAQDYKLRIKQITEEVERQVSTAMAEEIRRLSVLVDDYQMDFHPSPVVLKVYKNELHRHIEEGLGRNMSDRCSTAITNSLQTMQQDMIDGLKPLLPVSVRSQIDMLVPRQCFSLNYDLNCDKLCADFQEDIEFHFSLGWTMLVNRFLGPKNSRRALMGYNDQVQRPIPLTPANPSMPPLPQGSLTQEEFMVSMVTGLASLTSRTSMGILVVGGVVWKAVGWRLIALSFGLYGLLYVYERLTWTTKAKERAFKRQFVEHASEKLQLVISYTGSNCSHQVQQELSGTFAHLCQQVDVTRENLEQEIAAMNKKIEVLDSLQSKAKLLRNKAGWLDSELNMFTHQYLQPSR"
binds,,,"His-MFN2 (1-357) (domain or fragment, UniProt O95140-1 1-357) MSLLFSRCNSIVTVKKNKRHMAEVNASPLKHFVTAKKKINGIFEQLGAYIQESATFLEDTYRNAELDPVTTEEQVLDVKGYLSKVRGISEVLARRHMKVAFFGRTSNGKSTVINAMLWDKVLPSGIGHTTNCFLRVEGTDGHEAFLLTEGSEEKRSAKTVNQLAHALHQDKQLHAGSLVSVMWPNSKCPLLKDDLVLMDSPGIDVTTELDSWIDKFCLDADVFVLVANSESTLMQTEKHFFHKVSERLSRPNIFILNNRWDASASEPEYMEEVRRQHMERCTSFLVDELGVVDRSQAGDRIFFVSAKEVLNARIQKAQGMPEGGGALAEGFQVRMFEFQNFERRFEECISQSAVKTK"
binds,binds,binds,"His-Sumo-MFN2 (1-357) (domain or fragment, UniProt O95140-1 1-357) MSLLFSRCNSIVTVKKNKRHMAEVNASPLKHFVTAKKKINGIFEQLGAYIQESATFLEDTYRNAELDPVTTEEQVLDVKGYLSKVRGISEVLARRHMKVAFFGRTSNGKSTVINAMLWDKVLPSGIGHTTNCFLRVEGTDGHEAFLLTEGSEEKRSAKTVNQLAHALHQDKQLHAGSLVSVMWPNSKCPLLKDDLVLMDSPGIDVTTELDSWIDKFCLDADVFVLVANSESTLMQTEKHFFHKVSERLSRPNIFILNNRWDASASEPEYMEEVRRQHMERCTSFLVDELGVVDRSQAGDRIFFVSAKEVLNARIQKAQGMPEGGGALAEGFQVRMFEFQNFERRFEECISQSAVKTK"
